For the assay, the target named is T1, cLuc-Linker1-Flag-Mdm2.
T1 construct: also called cLuc-Mdm2; Mdm2 E3 ligase
Kind of assay: BiLC in living U2OS cells.

The source of these data is patent US20150010932A1 (SALK INSTITUTE FOR BIOLOGICAL STUDIES, published 2015).

B1: nLuc-Linker1-HA-Ube2d3 (other)
chain: MEDAKNIKKGPAPFYPLEDGTAGEQLHKAMKRYALVPGTIAFTDAHIEVDITYAEYFEMSVRLAEAMKRYGLNTNHRIVVCSENSLQFFMPVLGALFIGVAVAPANDIYNERELLNSMGISQPTVVFVSKKGLQKILNVQKKLPIIQKIIIMDSKTDYQGFQSMYTFVTSHLPPGFNEYDFVPESFDRDKTIALIMNSSGSTGLPKGVALPHRTACVRFSHARDPIFGNQIIPDTAILSVVPFHHGFGMFTTLGYLICGFRVVLMYRFEEELFLRSLQDYKIQSALLVPTLFSFFAKSTLIDKYDLSNLHEIASGGAPLSKEVGEAVAKRFHLPGIRQGYGLTETTSAILITPEGDDKPGAVGKVVPFFEAKVVDLDTGKTLGVNQRGELCVRGPMIMSGYVNNPEATNALIDKDGGGGSGGGQISYASRGYPYDVPDYAGSSGALKRINKELSDLARDPPAQCSAGPVGDDMFHWQATIMGPNDSPYQGGVFFLTIHFPTDYPFKPPKVAFTTRIYHPNINSNGSICLDILRSQWSPALTISKVLLSICSLLCDPNPDDPLVPEIARIYKTDRDKYNRISREWTQKYAM
notes: also called nLuc-Ube2d3; UbcH5c
B1: the binding result was “no binding”.
